This is one part of the list.
Compound: C1COCCN1CCN2C3=CC=CC=C3N=C2NC(=O)C4=CC(=CC=C4)[N+](=O)[O-] [IRAK-1-4 Inhibitor I]
Test: log2 fold change, soluble protein after heating vs DMSO (PISA); higher = thermal stabilisation; K562 lysate, 10 uM; active = over 0.2 and 3.5 SD of the protein, either way, in both replicates (recomputed)
Summary of the method: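 A 30 min treatment with 10 μM compound was applied to crude K562 extract at 1 mg/mL protein in PBS pH 7.4 with 1 mM MgCl2. Heating for 3 min spanned 48°C-58°C, after which aliquots were pooled, adjusted to 0.5% NP-40 at 4°C and spun at 21,000xg for 90 min. TMTpro 16plex LC-MS/MS of the supernatant, with channel sums equalised, gave values recorded as log-two fold change in thermal stability against solvent controls, from duplicates.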

By UniProt entry, the sequences of proteins in these tests, tags left out. Where a name states a change or a piece, a line headed by the entry shows the natural chain unless it says otherwise.
UniProt Q9Y343: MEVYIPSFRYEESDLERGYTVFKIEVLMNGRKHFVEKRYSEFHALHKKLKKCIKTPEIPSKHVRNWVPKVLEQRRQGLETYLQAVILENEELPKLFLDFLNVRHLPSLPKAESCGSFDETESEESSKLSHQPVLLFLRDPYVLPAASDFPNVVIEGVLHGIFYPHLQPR
UniProt B2RUZ4: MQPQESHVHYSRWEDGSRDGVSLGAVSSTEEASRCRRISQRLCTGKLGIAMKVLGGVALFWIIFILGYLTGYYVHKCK
UniProt Q5SQN1: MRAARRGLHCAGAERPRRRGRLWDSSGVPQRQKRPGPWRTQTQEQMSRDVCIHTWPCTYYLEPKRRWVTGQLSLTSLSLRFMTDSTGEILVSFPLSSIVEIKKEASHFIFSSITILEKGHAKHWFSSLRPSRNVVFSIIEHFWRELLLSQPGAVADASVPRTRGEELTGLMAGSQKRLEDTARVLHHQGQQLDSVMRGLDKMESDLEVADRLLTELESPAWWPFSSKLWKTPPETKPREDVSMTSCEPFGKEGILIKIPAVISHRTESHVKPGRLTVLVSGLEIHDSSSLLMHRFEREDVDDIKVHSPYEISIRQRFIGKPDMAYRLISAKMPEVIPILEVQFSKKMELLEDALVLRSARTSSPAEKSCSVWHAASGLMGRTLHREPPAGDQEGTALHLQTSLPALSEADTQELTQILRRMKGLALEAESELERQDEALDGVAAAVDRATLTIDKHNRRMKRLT
UniProt Q8WVI0: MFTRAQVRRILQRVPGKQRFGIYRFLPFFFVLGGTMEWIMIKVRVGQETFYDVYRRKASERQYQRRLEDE
UniProt Q15506: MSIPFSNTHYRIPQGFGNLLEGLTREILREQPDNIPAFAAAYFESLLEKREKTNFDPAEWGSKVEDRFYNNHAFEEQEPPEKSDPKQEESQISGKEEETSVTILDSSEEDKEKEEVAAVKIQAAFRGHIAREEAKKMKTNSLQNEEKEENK
UniProt Q9H3E2: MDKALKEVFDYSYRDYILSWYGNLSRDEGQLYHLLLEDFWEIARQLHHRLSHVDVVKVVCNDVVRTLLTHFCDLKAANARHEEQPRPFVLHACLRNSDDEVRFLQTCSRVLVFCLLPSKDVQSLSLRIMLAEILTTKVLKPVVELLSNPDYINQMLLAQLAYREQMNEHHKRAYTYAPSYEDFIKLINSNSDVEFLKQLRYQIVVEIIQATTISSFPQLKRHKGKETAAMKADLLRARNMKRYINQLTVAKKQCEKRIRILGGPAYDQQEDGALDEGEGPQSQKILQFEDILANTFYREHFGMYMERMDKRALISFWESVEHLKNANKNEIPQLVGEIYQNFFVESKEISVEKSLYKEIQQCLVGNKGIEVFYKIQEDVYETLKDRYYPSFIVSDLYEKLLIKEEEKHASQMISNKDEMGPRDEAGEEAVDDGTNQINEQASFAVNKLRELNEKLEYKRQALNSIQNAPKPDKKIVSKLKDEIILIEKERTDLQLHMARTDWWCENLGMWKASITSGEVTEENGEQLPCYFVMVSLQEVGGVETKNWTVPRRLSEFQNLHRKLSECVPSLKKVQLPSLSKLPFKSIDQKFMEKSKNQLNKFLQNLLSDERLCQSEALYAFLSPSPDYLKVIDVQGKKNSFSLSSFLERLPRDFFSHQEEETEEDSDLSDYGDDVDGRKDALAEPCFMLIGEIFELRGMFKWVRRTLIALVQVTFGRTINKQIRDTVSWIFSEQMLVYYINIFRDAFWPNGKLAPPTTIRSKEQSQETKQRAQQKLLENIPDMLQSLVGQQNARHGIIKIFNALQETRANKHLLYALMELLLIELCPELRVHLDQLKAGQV
UniProt Q9H4I9: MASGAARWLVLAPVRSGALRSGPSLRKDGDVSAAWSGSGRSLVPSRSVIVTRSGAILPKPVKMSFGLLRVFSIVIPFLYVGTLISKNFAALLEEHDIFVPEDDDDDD
UniProt Q13487, whole entry, looked up: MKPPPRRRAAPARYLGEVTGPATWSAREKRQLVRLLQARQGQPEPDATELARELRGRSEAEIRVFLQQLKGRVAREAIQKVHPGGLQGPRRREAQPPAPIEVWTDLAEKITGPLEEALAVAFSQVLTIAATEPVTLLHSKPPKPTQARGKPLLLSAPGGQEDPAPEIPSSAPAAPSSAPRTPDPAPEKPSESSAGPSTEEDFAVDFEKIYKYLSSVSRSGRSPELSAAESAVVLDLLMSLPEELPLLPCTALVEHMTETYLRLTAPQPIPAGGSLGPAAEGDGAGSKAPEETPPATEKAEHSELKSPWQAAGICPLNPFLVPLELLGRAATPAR
UniProt Q92485: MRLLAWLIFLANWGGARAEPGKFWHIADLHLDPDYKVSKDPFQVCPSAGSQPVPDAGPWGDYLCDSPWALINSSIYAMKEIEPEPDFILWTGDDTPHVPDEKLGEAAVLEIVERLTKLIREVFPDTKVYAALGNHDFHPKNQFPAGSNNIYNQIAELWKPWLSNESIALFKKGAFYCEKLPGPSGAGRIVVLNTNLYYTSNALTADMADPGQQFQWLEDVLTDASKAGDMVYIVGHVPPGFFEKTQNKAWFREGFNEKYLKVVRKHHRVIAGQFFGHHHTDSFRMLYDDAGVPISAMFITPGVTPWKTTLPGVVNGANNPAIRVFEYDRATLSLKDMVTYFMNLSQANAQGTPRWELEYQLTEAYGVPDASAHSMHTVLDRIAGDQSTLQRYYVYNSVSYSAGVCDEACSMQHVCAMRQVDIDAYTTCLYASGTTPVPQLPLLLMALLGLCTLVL
UniProt Q96E16: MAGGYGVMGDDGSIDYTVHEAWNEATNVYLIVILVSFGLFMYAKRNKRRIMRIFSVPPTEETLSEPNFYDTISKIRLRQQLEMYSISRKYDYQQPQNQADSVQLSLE
UniProt Q9BV90: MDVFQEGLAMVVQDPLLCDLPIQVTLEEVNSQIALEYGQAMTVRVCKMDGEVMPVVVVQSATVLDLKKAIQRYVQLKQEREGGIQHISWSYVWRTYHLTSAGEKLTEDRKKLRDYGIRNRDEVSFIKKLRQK
UniProt P18583: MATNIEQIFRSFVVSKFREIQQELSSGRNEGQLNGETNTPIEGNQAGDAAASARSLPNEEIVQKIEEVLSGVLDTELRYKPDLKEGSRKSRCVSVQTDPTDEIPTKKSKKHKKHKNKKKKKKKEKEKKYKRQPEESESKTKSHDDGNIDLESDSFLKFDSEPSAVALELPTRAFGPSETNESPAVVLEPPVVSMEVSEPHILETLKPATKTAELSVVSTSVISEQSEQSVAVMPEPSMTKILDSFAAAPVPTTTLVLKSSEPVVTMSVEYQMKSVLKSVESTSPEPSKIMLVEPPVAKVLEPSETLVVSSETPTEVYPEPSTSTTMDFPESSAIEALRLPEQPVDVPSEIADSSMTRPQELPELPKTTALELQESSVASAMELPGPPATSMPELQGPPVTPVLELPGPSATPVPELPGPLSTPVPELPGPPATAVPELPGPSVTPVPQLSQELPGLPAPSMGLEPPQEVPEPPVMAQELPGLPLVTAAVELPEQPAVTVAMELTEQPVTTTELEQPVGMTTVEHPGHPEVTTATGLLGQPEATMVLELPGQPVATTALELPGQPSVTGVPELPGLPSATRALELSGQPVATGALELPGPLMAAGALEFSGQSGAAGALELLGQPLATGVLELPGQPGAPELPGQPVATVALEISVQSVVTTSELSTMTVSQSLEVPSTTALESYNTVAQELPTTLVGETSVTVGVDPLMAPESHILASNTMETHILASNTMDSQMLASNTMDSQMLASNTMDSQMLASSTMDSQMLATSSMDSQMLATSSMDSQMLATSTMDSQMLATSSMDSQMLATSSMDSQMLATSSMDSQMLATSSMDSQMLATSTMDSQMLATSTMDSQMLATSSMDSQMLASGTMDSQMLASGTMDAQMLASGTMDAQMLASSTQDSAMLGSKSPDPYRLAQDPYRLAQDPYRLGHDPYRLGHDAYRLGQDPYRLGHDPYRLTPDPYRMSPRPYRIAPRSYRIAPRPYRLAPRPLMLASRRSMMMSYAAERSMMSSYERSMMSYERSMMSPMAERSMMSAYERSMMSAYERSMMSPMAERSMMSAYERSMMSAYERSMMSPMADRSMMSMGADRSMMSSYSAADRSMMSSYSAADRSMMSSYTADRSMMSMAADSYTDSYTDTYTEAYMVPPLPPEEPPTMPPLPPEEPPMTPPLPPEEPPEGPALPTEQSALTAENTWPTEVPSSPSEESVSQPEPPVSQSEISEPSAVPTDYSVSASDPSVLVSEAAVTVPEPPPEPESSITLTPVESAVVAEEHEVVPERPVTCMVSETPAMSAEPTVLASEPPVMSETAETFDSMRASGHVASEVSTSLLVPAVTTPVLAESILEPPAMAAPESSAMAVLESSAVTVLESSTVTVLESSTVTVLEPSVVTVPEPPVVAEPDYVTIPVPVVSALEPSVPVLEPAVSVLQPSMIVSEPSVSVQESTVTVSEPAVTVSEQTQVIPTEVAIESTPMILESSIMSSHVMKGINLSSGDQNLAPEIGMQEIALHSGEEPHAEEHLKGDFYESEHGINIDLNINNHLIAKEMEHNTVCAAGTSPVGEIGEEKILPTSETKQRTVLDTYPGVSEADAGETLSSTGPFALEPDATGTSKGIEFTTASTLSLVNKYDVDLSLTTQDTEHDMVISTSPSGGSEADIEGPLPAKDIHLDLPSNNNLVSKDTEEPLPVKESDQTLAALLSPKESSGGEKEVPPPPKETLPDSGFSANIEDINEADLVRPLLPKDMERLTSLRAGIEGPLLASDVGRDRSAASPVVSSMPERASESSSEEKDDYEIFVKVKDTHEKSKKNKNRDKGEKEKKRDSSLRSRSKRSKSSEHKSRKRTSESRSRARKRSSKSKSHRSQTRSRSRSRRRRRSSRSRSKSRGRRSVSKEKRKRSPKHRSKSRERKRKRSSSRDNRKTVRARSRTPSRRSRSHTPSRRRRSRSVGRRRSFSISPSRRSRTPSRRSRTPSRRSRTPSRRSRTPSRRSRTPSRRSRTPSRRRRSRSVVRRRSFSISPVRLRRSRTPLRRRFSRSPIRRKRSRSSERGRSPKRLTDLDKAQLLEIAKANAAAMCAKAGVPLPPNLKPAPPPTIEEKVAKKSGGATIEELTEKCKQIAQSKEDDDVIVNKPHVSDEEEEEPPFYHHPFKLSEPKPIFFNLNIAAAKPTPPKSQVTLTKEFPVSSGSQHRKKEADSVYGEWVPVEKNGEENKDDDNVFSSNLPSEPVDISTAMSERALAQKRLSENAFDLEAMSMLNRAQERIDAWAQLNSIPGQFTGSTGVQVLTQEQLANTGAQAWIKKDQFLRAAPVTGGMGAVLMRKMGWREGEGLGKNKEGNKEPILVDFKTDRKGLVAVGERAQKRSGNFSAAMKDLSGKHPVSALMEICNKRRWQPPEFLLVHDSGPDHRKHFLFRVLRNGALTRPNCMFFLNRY
UniProt Q5VWJ9: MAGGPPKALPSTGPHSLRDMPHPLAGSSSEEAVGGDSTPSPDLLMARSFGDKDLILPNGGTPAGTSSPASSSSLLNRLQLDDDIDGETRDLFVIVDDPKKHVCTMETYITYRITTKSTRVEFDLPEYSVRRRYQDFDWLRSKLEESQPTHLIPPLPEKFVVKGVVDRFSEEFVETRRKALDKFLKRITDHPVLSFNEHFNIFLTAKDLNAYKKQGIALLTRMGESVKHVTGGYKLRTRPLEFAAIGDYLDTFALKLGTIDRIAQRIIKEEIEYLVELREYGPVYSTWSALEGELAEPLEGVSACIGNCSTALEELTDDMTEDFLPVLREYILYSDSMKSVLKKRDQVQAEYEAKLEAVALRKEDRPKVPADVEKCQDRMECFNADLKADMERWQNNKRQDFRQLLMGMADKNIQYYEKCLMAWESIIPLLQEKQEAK
UniProt Q02447: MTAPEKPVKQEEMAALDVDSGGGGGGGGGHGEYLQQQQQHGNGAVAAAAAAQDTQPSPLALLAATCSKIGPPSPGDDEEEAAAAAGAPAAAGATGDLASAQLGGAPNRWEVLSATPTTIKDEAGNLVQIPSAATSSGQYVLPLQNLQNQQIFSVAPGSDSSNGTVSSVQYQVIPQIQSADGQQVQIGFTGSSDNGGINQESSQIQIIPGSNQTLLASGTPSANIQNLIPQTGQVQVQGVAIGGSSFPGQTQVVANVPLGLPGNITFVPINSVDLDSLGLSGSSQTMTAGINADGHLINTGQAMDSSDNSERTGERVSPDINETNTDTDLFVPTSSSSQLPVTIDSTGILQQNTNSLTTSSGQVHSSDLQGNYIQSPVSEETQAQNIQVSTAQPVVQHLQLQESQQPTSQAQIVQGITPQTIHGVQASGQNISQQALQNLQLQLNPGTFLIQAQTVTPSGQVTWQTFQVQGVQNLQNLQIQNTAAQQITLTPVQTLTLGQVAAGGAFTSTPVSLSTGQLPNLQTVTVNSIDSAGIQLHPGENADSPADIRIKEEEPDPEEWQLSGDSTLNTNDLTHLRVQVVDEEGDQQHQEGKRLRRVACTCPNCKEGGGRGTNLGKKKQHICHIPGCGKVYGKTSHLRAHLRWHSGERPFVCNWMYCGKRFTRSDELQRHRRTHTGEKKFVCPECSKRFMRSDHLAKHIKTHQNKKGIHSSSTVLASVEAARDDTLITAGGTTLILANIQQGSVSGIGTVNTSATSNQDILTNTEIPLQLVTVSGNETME

log2 fold change, inactive:
SNX10 (UniProt Q9Y5X0) -0.094
SNX24 (UniProt Q9Y343) -0.034
SMIM1 (UniProt B2RUZ4) -0.214
SNAP47 (UniProt Q5SQN1) 0.089
SNX13 (UniProt Q9Y5W8) 0.067
SMIM4 (UniProt Q8WVI0) -0.028
SPAG1 (UniProt Q07617) 0.042
SMARCA4 isoform 4 (UniProt P51532) -0.101
SMPD1 (UniProt P17405) 0.09
SNX33 (UniProt Q8WV41) -0.314
SPA17 (UniProt Q15506) 0
SMYD4 (UniProt Q8IYR2) 0.244
SMPD4 isoform 4 (UniProt Q9NXE4) -0.314
SNX25 (UniProt Q9H3E2) 0.082
SMDT1 (UniProt Q9H4I9) -0.087
SNAPC2 (UniProt Q13487) -0.166
SMPDL3B (UniProt Q92485) -0.015
SMIM19 (UniProt Q96E16) -0.204
SNX29 (UniProt Q8TEQ0) -0.017
SNRNP25 (UniProt Q9BV90) 0.107
SMARCC2 isoform 3 (UniProt Q8TAQ2) -0.123
SMR3B (UniProt P02814) 0.004
SMPD2 (UniProt O60906) 0.065
SPAG9 isoform 4 (UniProt O60271) -0.06
SMIM26, A0A096LP01 0.031
SON isoform 6 (UniProt P18583) -0.062
SNX30 (UniProt Q5VWJ9) -0.023
SP3 (UniProt Q02447) -0.01
SNX19 (UniProt Q92543) 0.035

Quoted from the entries so far for reference:
log2 fold change, inactive:
SNRNP25 (UniProt Q9BV90) 0.107
SMARCC2 isoform 3 (UniProt Q8TAQ2) -0.123
SMR3B (UniProt P02814) 0.004
SMPD2 (UniProt O60906) 0.065
SPAG9 isoform 4 (UniProt O60271) -0.06
